Laboratory results taken from patent US20160122386A1, “V1A RECEPTOR AGONISTS” (FERRING B.V., priority 2014, published 2016).

Amino acid sequences for entries named in this document (tags omitted).
UniProt P37288, whole entry: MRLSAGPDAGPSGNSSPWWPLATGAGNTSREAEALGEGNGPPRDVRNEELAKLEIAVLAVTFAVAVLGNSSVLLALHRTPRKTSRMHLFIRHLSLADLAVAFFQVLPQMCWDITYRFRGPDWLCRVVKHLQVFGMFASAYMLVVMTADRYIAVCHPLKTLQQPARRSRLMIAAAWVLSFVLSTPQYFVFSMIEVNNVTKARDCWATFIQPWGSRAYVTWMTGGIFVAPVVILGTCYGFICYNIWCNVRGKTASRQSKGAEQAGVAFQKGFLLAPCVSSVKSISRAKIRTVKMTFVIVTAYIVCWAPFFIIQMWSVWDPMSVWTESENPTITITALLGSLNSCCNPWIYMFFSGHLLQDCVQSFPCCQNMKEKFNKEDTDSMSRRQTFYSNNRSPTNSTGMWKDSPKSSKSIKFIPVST

Target: T1, human V1aR (Homo sapiens, UniProt P37288)
T1 construct: expressed in transfected cells
Assay: Agonist activity at vasopressin V1a receptors, cell-based FLIPR calcium assay
Conditions: read-out: Efficacy Avg. (%)
Experimental: Efficacy (% MPE) is also determined as the percentage of maximal possible effect. This agonist assay utilizes cells from a stable cell line (HEK-flpin) expressing the vasopressin V1a receptor. Intracellular calcium increase in response to agonist is measured through real-time fluorescence of an intracellular calcium-sensitive dye. Cells are exposed to varying concentrations of test agonist compounds whereupon release of intracellular calcium is measured to determine the agonist potency and efficacy.
The cell line stably expresses the lacZ-Zeocin™ fusion gene and is designed for use with the Flp-In™ expression vector containing the gene of interest and the Flp recombinase expression plasmid, pOG44. The cell line contains a single integrated Flp Recombination Target (FRT) site from pFRT/lacZeo or pFRT/lacZeo2. […]
The cell plates were transferred to FLIPR Tetra, along with a 384 well V-bottom plate pre-loaded with half-log concentrations of test compounds at 10× final test concentrations. […] A baseline reading was taken at 1-second (s) intervals for 5s followed by the addition of 5 μl of 10× compounds (test, reference, or Blank). The agonist-induced fluorescence signal was then measured for 180 s with initial 120 readings at 1-second intervals followed by 20 readings at 3-second intervals. […]

CC[C@H](C)[C@@H]1NC(=O)[C@H](Cc2ccccc2)NC(=O)[C@@H](N)CSSC[C@@H](C(=O)N2CCC[C@H]2C(=O)N[C@@H](CCNC(=O)[C@@H](N)CCCCNC(=O)[C@H](CCCCNC(C)=O)NC(=O)CC[C@H](NC(=O)[C@H](CCCNC(=N)N)NC(=O)[C@@H]2CCCN2C(=O)[C@H](C)NC(=O)[C@H](CC(N)=O)NC(=O)[C@H](CCC(N)=O)NC(=O)[C@H](Cc2ccccc2)NC(=O)[C@@H](Cc2ccc(OC)cc2)NC(=O)Cc2ccccc2)C(N)=O)C(=O)NCC(N)=O)NC(=O)[C@H](CC(N)=O)NC(=O)[C@H](CCC(N)=O)NC1=O [Compound 42]
Emax: 37%
